In the supplement of paper PMC8256030:
Several values for one entry are separate records, joined by “and”; a condition that tells them apart may be missing. Identical values can stand only once. Counter-ions that a name gives are not always drawn. The list shows a part of the results. Single values are uncertain here, since repeats match poorly.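 HEK293T cells were given each compound shortly before transfection with a reporter in which red mCherry is followed by the SARS-CoV-2 frameshift element and then GFP in the −1 frame, so GFP appears only after frameshifting.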

tested on: HEK293T; assay: percent viability (nuclei count) relative to control; higher = more viable cells; conditions: 10 µM; 24 h

| Structure (SMILES) | percent viability |
| --- | --- |
| O=c1c(I)c[nH]cc1I [iopydone] | 218% |
| Cc1cc2c(OCC(CNC(C)(C)C)OC(=O)c3ccccc3)cccc2[nH]1 (stereo unspecified) [bopindolol] | 188% |
| COC(=O)[C@@H]1[C@H]2C[C@H]3c4[nH]c5ccccc5c4CCN3C[C@@H]2CC[C@@H]1O [Yohimbine·HCl] | 270% |
| C#CCN[C@@H]1CCc2ccccc21 [rasagiline] | 133% |
| CC(=O)OCC(=O)[C@@]1(O)CC[C@H]2[C@@H]3CCC4=CC(=O)C=C[C@]4(C)[C@@]3(F)[C@@H](O)C[C@@]21C | 65% |
| C[C@@H](O)[C@H]1C(=O)N2C(C(=O)O)=C(S[C@@H]3CN[C@H](C(=O)N(C)C)C3)[C@H](C)[C@H]12 | 159% |
| Cc1cc(CC(=O)O)c(C)n1-c1ccc(Cl)cc1 [clopirac] | 190% |
| Nc1nc(N)nc(-c2cc(Cl)ccc2Cl)n1 [irsogladine] | 290% and 233% |
| COC(=O)Nc1nc2cc(C(=O)c3ccccc3)ccc2[nH]1 [mebendazole] | 14.8% |
| C[C@]12CC[C@@H]3c4ccc(O)cc4CC[C@H]3[C@@H]1CCC2=O [estrone] | 134% and 228% |
| O=C(O)CCCCC(=O)O | 280% |
| CCN(CC)CCOC(=O)C(Cc1cccc2ccccc12)CC1CCCO1 (mixture of isomers) [naftidrofuryl] | 187% |
| CC(C(=O)O)c1cccc(Oc2ccccc2)c1 (stereo unspecified) [fenoprofen] | 162% and 229% |
| OC(CNC12CC3CC(CC(C3)C1)C2)COc1ccccc1 (stereo unspecified) [mantabegron] | 188% |
| CCOCCn1cc(C(=O)Nc2ccc(-n3nc(-c4cccnc4)cc3C(F)(F)F)cn2)ccc1=O | 157% |
| C[C@H]1[C@H](OC(=O)CCC(=O)O)O[C@@H]2O[C@@]3(C)CC[C@H]4[C@H](C)CC[C@@H]1[C@@]24OO3 [Artesunate] | 53.8% |
| NCc1ccccc1Sc1ccccc1CO [bipenamol] | 150% |
| CC(CC(=O)c1ccc(-c2ccccc2)cc1)C(=O)O (stereo unspecified) [metbufen] | 118% |

| Structure (SMILES) | percent viability |
| --- | --- |
| C#C[C@]1(O)CC[C@H]2[C@@H]3CCC4=Cc5oncc5C[C@]4(C)[C@H]3CC[C@@]21C [danazol] | 159% and 222% |
| COC(=O)Nc1nc2cc(C(=O)c3ccccc3)ccc2[nH]1 [Mebendazol] | 16.3% |
| C[C@H](O)[C@H](O)[C@H]1CNc2nc(N)[nH]c(=O)c2N1 [Tetrahydrobiopterin] | 190% |
| CC1(C)S[C@@H]2[C@H](NC(=O)[C@H](N)c3ccccc3)C(=O)N2[C@H]1C(=O)OC1OC(=O)c2ccccc21 (stereo partly specified) [talampicillin] | 172% |
| O=[N+]([O-])c1ccc(/C=C/c2cccc(CO)n2)o1 [nifurpirinol] | 148% |
| OCCN(CCO)c1nc(N2CCCCC2)c2nc(N(CCO)CCO)nc(N3CCCCC3)c2n1 [dipyridamole] | 218% and 132% |
| Nc1ccn(C[C@@H](CO)OCP(=O)(O)O)c(=O)n1 [Vistide] | 206% |
| C[C@]12CCC(=O)C=C1CC[C@@H]1[C@@H]2[C@@H](O)C[C@@]2(C)[C@H]1CC[C@]2(O)C(=O)CS [tixocortol] | 290% |
| CCN(CC)CCCC(C)Nc1c2ccc(Cl)cc2nc2ccc(OC)cc12 (stereo unspecified) [mepacrine] | 170% |
| COc1ccc(C(=O)CC(=O)c2ccc(C(C)(C)C)cc2)cc1 [avobenzone] | 228% |
| CC(=O)O[C@H]1C(=O)[C@@]2(C)[C@H]([C@H](OC(=O)c3ccccc3)[C@]3(O)C[C@H](OC(=O)[C@H](O)[C@@H](NC(=O)c4ccccc4)c4ccccc4)C(C)=C1C3(C)C)[C@]1(OC(C)=O)CO[C@@H]1C[C@@H]2O [paclitaxel] | 18.4% |
| COC(=S)NCCn1c([N+](=O)[O-])cnc1C [carnidazole] | 144% |
| C/C=C/c1ccc(OC)cc1 | 249% |
| CO[C@@]12[C@H](COC(N)=O)C3=C(C(=O)C(C)=C(N)C3=O)N1C[C@@H]1N[C@@H]12 | 165% |
| C=C1CC[C@H](O)C/C1=C/C=C1\CCC[C@]2(C)[C@@H]([C@H](C)/C=C/[C@H](C)C(C)C)CC[C@@H]12 [Ergocalciferol] | 202% |
| NC(=O)c1ncn([C@@H]2O[C@H](CO)[C@@H](O)[C@H]2O)n1 [ribavirin] | 180% and 198% |
| O=C(C[S+]([O-])Cc1ccco1)NC/C=C\COc1cc(CN2CCCCC2)ccn1 (stereo unspecified) [lafutidine] | 208% |
| COc1nsnc1NS(=O)(=O)c1ccc(N)cc1 [sulfametrole] | 444% |
